Test results as given in PMC6656429.
Results are given in words; binding and its absence hold for the method and conditions named. For part of these data: In cells and extracts the contact can be indirect. Some entries that bind do so weakly or less than the wild type. For part of these data: Tags and fused reporters may be left off the sequences shown.

By UniProt entry, the sequences of proteins in these tests, tags left out. Where a name states a change or a piece, a line headed by the entry shows the natural chain unless it says otherwise.
UniProt O14777: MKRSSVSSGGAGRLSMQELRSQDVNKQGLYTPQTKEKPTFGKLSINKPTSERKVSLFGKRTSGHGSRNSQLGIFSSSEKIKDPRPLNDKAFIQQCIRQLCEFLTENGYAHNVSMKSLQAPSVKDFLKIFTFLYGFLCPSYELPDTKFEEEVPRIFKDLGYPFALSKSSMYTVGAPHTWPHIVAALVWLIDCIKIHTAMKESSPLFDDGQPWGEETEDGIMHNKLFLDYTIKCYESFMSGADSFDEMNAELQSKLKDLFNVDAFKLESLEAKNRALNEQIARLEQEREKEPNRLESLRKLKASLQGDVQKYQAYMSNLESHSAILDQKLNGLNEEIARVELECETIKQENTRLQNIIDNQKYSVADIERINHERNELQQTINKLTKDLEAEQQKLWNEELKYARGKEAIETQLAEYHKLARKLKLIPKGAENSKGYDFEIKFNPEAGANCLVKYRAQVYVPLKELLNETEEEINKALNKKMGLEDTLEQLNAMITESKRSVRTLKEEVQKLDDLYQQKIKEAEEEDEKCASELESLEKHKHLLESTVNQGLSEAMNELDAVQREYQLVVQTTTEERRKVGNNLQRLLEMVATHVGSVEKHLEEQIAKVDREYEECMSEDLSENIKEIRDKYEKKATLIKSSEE
UniProt Q9BZD4: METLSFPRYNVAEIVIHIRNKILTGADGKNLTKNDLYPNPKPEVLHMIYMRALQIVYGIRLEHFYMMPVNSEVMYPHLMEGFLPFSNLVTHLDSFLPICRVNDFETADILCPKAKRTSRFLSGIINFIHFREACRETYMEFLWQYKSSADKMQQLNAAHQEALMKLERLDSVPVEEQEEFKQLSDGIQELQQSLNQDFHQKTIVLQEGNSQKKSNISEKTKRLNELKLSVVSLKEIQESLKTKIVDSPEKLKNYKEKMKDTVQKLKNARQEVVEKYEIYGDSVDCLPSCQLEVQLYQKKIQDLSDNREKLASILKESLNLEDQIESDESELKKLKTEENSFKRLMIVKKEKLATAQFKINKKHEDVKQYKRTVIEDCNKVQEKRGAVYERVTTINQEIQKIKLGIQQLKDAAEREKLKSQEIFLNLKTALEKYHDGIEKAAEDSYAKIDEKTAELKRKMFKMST
UniProt Q8NBT2: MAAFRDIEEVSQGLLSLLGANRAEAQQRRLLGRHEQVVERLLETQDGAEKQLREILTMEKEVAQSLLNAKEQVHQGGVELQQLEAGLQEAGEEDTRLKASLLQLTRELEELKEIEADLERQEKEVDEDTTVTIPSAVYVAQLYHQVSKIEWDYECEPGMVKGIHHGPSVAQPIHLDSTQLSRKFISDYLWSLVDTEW
UniProt Q9HBM1: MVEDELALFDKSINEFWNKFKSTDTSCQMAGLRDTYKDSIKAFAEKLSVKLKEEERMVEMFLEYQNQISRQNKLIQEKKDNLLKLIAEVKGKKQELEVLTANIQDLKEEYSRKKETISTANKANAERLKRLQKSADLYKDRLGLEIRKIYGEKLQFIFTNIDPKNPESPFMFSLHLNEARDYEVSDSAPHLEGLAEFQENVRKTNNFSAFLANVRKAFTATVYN
UniProt O43683: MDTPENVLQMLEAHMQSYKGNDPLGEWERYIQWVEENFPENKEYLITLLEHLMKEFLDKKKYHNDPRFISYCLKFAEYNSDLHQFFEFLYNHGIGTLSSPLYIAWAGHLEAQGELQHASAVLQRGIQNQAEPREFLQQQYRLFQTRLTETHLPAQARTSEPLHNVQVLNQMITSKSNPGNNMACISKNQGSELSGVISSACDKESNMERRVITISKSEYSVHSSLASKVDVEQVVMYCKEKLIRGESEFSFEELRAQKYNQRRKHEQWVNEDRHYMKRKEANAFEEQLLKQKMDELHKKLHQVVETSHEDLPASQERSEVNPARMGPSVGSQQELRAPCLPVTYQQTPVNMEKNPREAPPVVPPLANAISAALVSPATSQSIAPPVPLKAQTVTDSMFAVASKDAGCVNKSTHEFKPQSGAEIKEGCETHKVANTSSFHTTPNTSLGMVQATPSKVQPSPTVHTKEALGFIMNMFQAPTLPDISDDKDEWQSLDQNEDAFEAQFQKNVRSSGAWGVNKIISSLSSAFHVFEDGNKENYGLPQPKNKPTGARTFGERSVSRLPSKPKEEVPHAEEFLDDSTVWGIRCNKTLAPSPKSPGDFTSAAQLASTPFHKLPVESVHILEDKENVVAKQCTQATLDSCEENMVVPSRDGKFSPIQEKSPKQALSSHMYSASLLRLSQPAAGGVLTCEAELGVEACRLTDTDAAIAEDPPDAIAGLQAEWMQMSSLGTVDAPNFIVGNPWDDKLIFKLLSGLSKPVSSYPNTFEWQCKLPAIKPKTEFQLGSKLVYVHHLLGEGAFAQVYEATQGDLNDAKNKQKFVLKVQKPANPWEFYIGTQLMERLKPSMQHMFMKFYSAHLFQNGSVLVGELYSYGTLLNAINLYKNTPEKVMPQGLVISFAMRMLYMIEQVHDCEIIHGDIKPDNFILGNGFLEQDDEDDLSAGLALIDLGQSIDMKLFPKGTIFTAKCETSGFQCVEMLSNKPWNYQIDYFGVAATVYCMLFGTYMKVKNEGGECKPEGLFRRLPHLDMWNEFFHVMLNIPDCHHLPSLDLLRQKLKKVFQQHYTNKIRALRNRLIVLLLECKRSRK
UniProt Q9H081: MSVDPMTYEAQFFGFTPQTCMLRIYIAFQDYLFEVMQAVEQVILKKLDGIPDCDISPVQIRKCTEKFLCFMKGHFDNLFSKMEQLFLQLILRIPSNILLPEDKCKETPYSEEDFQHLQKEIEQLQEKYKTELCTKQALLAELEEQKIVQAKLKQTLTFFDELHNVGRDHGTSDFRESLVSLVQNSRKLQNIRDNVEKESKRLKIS

How the values were obtained:
[1] = biological target: GFP-NDC80C^WT (recombinant GFP-labeled NDC80 complex of NDC80, NUF2, SPC24 and SPC25) (human) (UniProt O14777+Q9BZD4+Q8NBT2+Q9HBM1); test: co-IP; GFP-Trap beads on 4 mg protein extract of mitotic HeLa cells (nocodazole 16 h, shake off) previously electroporated with the recombinant GFP protein; 3 h at 4°C; lysis buffer 150 mM KCl, 75 mM Hepes pH 7.5, 1.5 mM EGTA, 1.5 mM MgCl2, 10% glycerol, 0.075% NP-40; western blot; only the target …
[2] = biological target: T1, DSN1-His (subunit of recombinant CFP-MIS12C) (human) (UniProt Q9H410); test: co-purification (His affinity, anion exchange, size exclusion); four MIS12C subunits co-expressed in Tnao38 insect cells; HisTrap FF with 300 mM imidazole step elution, Resource Q with NaCl gradient, Superdex 200 10/300 in 20 mM Tris-HCl pH 8.0, 0.15 M NaCl, 1 mM TCEP
T1 sequence: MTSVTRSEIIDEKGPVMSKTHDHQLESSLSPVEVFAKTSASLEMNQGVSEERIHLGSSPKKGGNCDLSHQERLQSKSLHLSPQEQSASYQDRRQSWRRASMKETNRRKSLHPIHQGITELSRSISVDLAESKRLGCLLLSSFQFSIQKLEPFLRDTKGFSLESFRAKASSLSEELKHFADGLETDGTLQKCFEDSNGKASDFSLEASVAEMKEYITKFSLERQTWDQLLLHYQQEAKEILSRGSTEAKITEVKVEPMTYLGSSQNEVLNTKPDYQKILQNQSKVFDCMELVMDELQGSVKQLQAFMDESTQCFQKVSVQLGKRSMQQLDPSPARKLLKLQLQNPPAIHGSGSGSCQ

[3] = biological target: SPC25 with C-terminal GFP and His6 tag (subunit of recombinant NDC80C^9A-GFP) (human) (UniProt Q9HBM1); test: co-purification (His affinity, anion exchange, size exclusion); four NDC80C subunits co-expressed in Tnao38 insect cells; elution with 300 mM imidazole, Resource Q with 25-400 mM NaCl gradient, Superose 6 16/70 in 50 mM HEPES pH 8, 250 mM NaCl, 5% glycerol, 2 mM TCEP

Which binding [1] does the source give for “BUB1 (endogenous) (from UniProt O43683 1-1085)” here?
The binding was “binds”.

“MIS12 (endogenous) (from UniProt Q9H081 1-205)” was tested. Which binding [1] did it give?
Its binding is “binds”.

For “MIS12 (subunit of recombinant CFP-MIS12C) (from UniProt Q9H081 1-205)”, which binding [2] is on record?
The binding was “binds”.

“NUF2 (subunit of recombinant NDC80C^9A-GFP) (from UniProt Q9BZD4 1-464)” was tested. Which binding [3] did it give?
Its binding is “binds”.

“SPC24 (subunit of recombinant NDC80C^9A-GFP) (from UniProt Q8NBT2 1-197)” was tested. Which binding [3] did it give?
Its binding is “binds”.

B1: CFP-PMF1 (subunit of recombinant CFP-MIS12C) (protein, UniProt Q6P1K2 1-205)
chain: MAEASSANLGSGCEEKRHEGSSSESVPPGTTISRVKLLDTMVDTFLQKLVAAGSYQRFTDCYKCFYQLQPAMTQQIYDKFIAQLQTSIREEISDIKEEGNLEAVLNALDKIVEEGKVRKEPAWRPSGIPEKDLHSVMAPYFLQQRDTLRRHVQKQEAENQQLADAVLAGRRQVEELQLQVQAQQQAWQALHREQRELVAVLREPE
Which binding [2] does the source give for B1 here?
The binding was “binds”.
